The record followed here is PubChem BioAssay AID2685 (National Center for Advancing Translational Sciences (NCATS), 2010).

The list shows a part of the results. Shown are side measurements of this screen, not its main read-out; they come without a call. Most of these compounds were active or inconclusive in the main read-out, so they are no random draw. The note in brackets gives the kind of curve behind each potency; many fits are weak.

A short description of this assay: qHTS Assay for Lipid Storage Modulators in Drosophila S3 Cells.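 As to cell number change: cells counted by Cell Tracker Red CMTPX staining in the red channel.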 Conditions: BODIPY lipid droplet fluorescence, 18-24 h; for cell number change: measured here: cell count max response, cells fed with added oleic acid. A digest of the protocol: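 Laser-scanning cytometry quantifies lipid droplet accumulation (500–530 nm total intensity; droplet/cell object ratio) in oleic acid-fed (400 uM added) Drosophila S3 cells treated with a concentration series. 20 uM Triacsin C defined 100% inhibition.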

Setting [1] is: measured here: cell number channel AC50, cells fed with added oleic acid.
Setting [2] is: measured here: lipid fluorescence (Fed channel) AC50, cells fed with added oleic acid.

Consider `Cc1ccc(S(=O)(=O)CCC(=O)OCc2ccc(S(=O)(=O)C(C)C)cc2)cc1`, for which the cell number change is -33.7%. Under setting [1], the AC50 was 4.11 µM [falling, single point]. Also, the AC50 under setting [2] is 6.51 µM [falling, single point].

For the molecule `Cc1nc(C)c(C(=O)C2=C(O)C(=O)N(CCN(C)C)C2c2ccco2)s1` (stereo unspecified), the cell number change was -1.17%.

On to `CCOC(=O)c1ccc(NC(=O)N2CCN(Cc3ccccc3)CC2)cc1`, for which the cell number change is -15.4%. Also, the AC50 under setting [1] is 6.51 µM [falling, single point]. In addition, the AC50 under setting [2] was 1.16 µM [falling, full curve, poor fit].

Regarding `CC(=O)c1sc2ccccc2c1OC(=O)c1ccco1`, the cell number change is -7.94%. For the same molecule, the AC50 under setting [2] is 0.00651 µM [falling, full curve, poor fit].

In the case of `COC(=O)C1(Cc2cc(-c3ccc([N+](=O)[O-])cc3)no2)CCN(C(=O)OC(C)(C)C)CC1`, the cell number change was -15.8%. Moreover, under setting [1], the AC50 was 6.51 µM [falling, single point]. Further, under setting [2], the AC50 was 7.31 µM [falling, partial curve].

Turning to `CC(=O)N(Cc1cccc(Br)c1)c1ccc(N2CCOCC2)c(Cl)c1`, the cell number change was -8.03%.

In the case of `CN(Cc1ccccc1)C1CCNCC1`, the cell number change is 7.66%. Under setting [2], the half-maximal activity concentration (AC50) was 5.17 µM [rising, full curve, poor fit].

Take `Cc1ccccc1OCCC(=O)N(CC(=O)Nc1ccccc1C(F)(F)F)Cc1ccco1`: the cell number change is -47.5%. For the same molecule, the AC50 under setting [1] is 29.1 µM [falling, single point]. The AC50 under setting [2] is 18.4 µM [falling, single point].

With `Nc1nncn1C(=O)c1cccs1`, the cell number change was -16.4%. The AC50 under setting [1] is 0.651 µM [falling, full curve]. Moreover, the AC50 under setting [2] is 0.82 µM [falling, full curve, poor fit].

Regarding `O=C(NCC(=O)N1CCN(S(=O)(=O)c2ccccc2)CC1)c1ccc(Br)o1`, the concentration at half-maximal activity (AC50) under setting [2] was 1.03 µM [falling, full curve].

As to `Cc1c(C(=O)Nc2cccc(C(F)(F)F)c2)oc2ccc(S(=O)(=O)N3CCOCC3)cc12`, the cell number change is 168%. The AC50 under setting [1] is 16.4 µM [rising, partial curve]. Also, the AC50 under setting [2] is 20.6 µM [rising, single point].

On to `Clc1cccc(N2CCN(CCNc3nc4ccccc4n4cnnc34)CC2)c1`, for which the cell number change is 86.5%.

As to `COCCCNC(=S)N(Cc1ccccc1)Cc1nc2ccccc2c(=O)[nH]1`, the cell number change is -10.4%.

With `Cc1cc(C(=O)COC(=O)c2ccc(Cl)c(S(N)(=O)=O)c2)c(C)n1CC1CCCO1` (stereo unspecified), the cell number change came out at 53.9%. The AC50 under setting [1] was 5.8 µM [rising, partial curve].

For `Clc1ccccc1Cc1noc(CN2CCCCC2CCc2ccccn2)n1` (stereo unspecified), the cell number change worked out at 3.3%. The AC50 under setting [2] is 0.651 µM [rising, single point].

Consider `Cc1ccc(S(=O)(=O)NCCC(=O)N2CCN(C/C=C/c3ccccc3)CC2)cc1`, for which the cell number change is -27.5%. In addition, the AC50 under setting [2] is 18.4 µM [falling, single point].

As for `COC(=O)c1ccc(NS(=O)(=O)c2cccc3cccnc23)cc1`, the cell number change amounted to 23.3%. Besides, the AC50 under setting [2] was 6.51 µM [rising, single point].

In the case of `COc1ccccc1CN(C)C(C)C(=O)Nc1cccc(C(C)=O)c1` (stereo unspecified), the cell number change was -57.4%.

On to `N#Cc1c(NC(=O)CSc2nc3ccccc3c(=O)n2Cc2ccco2)sc2c1CCCC2`, for which the cell number change is -8.6%.

For `Cc1ccc(O)c(NC(=O)CSc2n[nH]c(-c3ccccc3)n2)c1`, the cell number change is -26.5%.

Turning to `Fc1cccc2sc(Nc3nnc(-c4ccco4)o3)nc12`, the cell number change is -34.7%. The AC50 under setting [2] was 32.6 µM [falling, single point].

As for `COc1ccc(/C=C2/CCOC2=O)cc1`, the cell number change was found to be 38.4%. Moreover, the AC50 under setting [1] is 23.1 µM [rising, single point].

As to `Cn1cc2c(=O)n(/N=C/c3ccccc3)cnc2n1`, the cell number change is 16.5%. In addition, the AC50 under setting [1] is 3.26 µM [rising, single point].

On to `O=C(C1CCCN(Cc2cccs2)C1)N1CCCCCC1` (stereo unspecified), for which the cell number change was 5.47%. For the same molecule, under setting [2], the AC50 was 9.2 µM [rising, partial curve].

Take `Cc1ccc(C(=O)Cn2c(N3CCOCC3)nc3c2c(=O)n(C)c(=O)n3C)cc1`: the cell number change was -4.14%.

For the molecule `CC(C(=O)O)c1cccc(C(=O)c2ccccc2)c1` (stereo unspecified), the half-maximal activity concentration (AC50) under setting [2] was 2.91 µM [falling, full curve].

Turning to `O=C(Cn1c(=O)[nH]c2sc3c(c2c1=O)CCCC3)NCC1CCCO1` (stereo unspecified), the cell number change worked out at 24.2%. The AC50 under setting [2] is 0.291 µM [rising, full curve, poor fit].

Turning to `CC(NC(=O)c1cc(COc2ccc3ncccc3c2)on1)c1ccc(F)cc1` (stereo unspecified), the cell number change was -41.3%. Moreover, the AC50 under setting [2] is 29.1 µM [falling, single point].

Consider `Cc1nnc(NC(=O)c2sc3ccccc3c2Cl)s1`, for which the cell number change is -10.8%.

Regarding `COc1ccc2c(c1)cc1c(=O)n(CC(=O)NCCCN3CCOCC3)nc(C)n12`, the cell number change was -5.67%.

`CCCCC(=O)N/N=C(\C)c1cccc(NC(=O)C2CC2)c1`: the cell number change worked out at 29.7%. The AC50 under setting [2] is 2.91 µM [rising, partial curve, poor fit].

For the molecule `COc1cc(C(=O)N2CCC(O)(c3ccccc3)CC2)cc(OC)c1OC`, the AC50 was 0.731 µM [falling, single point] under setting [1] and 0.461 µM [falling, full curve] under setting [2].

Take `CC(C)(C)CC(C)(C)c1ccc(O)c(CN2CCN(CCC#N)CC2)c1`: the cell number change is -56.8%. Besides, the half-maximal activity concentration (AC50) under setting [1] was 20.6 µM [falling, single point]. For the same molecule, the AC50 under setting [2] is 0.146 µM [rising, full curve, poor fit].

As to `COCC(C)NC(=O)CSc1ncnc2sc(-c3ccccc3)cc12` (stereo unspecified), the cell number change was -3.23%. Under setting [2], the AC50 was 0.00517 µM [falling, full curve, poor fit].

For `O=C1c2ccccc2C(=O)N1c1ccc(Cl)cc1`, the cell number change was -16.2%.

As to `Cn1cnc(S(=O)(=O)N2CCN(c3cccc(Cl)c3)CC2)c1`, the cell number change is -6.73%. Under setting [2], the AC50 was 5.8 µM [falling, single point].

For the molecule `COc1ccc(/C(=N/O)C(C)(C)NO)cc1`, the cell number change was found to be 2.26%. For the same molecule, the AC50 under setting [2] was 3.26 µM [falling, full curve, poor fit].

Consider `CC(C)Sc1ncc(S(=O)(=O)c2ccccc2)c(=O)[nH]1`, for which the cell number change is -5.61%. Also, the AC50 under setting [2] was 6.51 µM [rising, single point].

As for `COC(=O)c1ccccc1NC(=O)[C@@H]1CCC(=O)N1C1OC(=O)c2c1ccc(OC)c2OC` (stereo partly specified), the cell number change stood at 6.15%. Under setting [2], the AC50 is 29.1 µM [rising, single point].

On to `Nc1ncc(Br)cc1N=Cc1ccccc1`, for which the cell number change was found to be 13.7%. For the same molecule, the AC50 under setting [2] is 8.2 µM [rising, partial curve, poor fit].

In the case of `CC(OC(=O)C1CCN(S(=O)(=O)c2ccc(C(C)(C)C)cc2)CC1)C(=O)N1CCOCC1` (stereo unspecified), the cell number change was -9.18%.

For `COc1cc(/C=C2/C(=N)N3C(=NC2=O)SN=C3S(=O)(=O)C(C)C)ccc1OC(=O)c1ccco1`, the cell number change amounted to 0.19%. The AC50 under setting [2] is 9.2 µM [falling, partial curve].

As for `CCC(Oc1ccccc1)C(=O)Nc1ccc(S(=O)(=O)Nc2cnc3ccccc3n2)cc1` (stereo unspecified), the cell number change is -40.6%. Further, the AC50 under setting [1] is 5.8 µM [falling, full curve].

On to `Cc1cc(Cl)ccc1OCCCC(=O)NCc1ccncc1`, for which the cell number change came to 8.2%.

For the molecule `COc1ccc(C(=O)OCC(=O)NCCCc2ccccc2)cc1[N+](=O)[O-]`, the cell number change is -19.3%. In addition, the AC50 under setting [1] was 4.11 µM [falling, single point]. Moreover, under setting [2], the AC50 is 3.66 µM [falling, single point].

`Cc1cccc(C)c1OCC(O)CN1CCC(CN2C(=O)c3cccc4cccc(c34)C2=O)CC1` (stereo unspecified): the cell number change is -65.9%. Besides, under setting [2], the AC50 was 18.4 µM [falling, partial curve].

On to `CC(=O)Nc1ncnc2c1c(-c1ccc(Cl)cc1)nn2C(C)(C)C`, for which the cell number change is -14%.

Turning to `O=C(Nc1ccc2c(c1)CCC2)c1cc2ccccc2o1`, the half-maximal activity concentration (AC50) under setting [1] is 6.51 µM [rising, partial curve, poor fit] and the half-maximal activity concentration (AC50) under setting [2] is 0.103 µM [rising, full curve, poor fit].

`CC(=O)Nc1ccc(NC(=O)CSC2=NS(=O)(=O)c3cc(F)ccc3N2)cc1`: the cell number change was determined as 13.3%.

Turning to `CN1c2ccccc2C2(C)CCCC3=Cc4cccc([N+](=O)[O-])c4OC312` (stereo unspecified), the cell number change is -45.1%. In addition, the AC50 under setting [1] is 25.9 µM [falling, single point]. Further, under setting [2], the AC50 was 29.1 µM [rising, single point].

Consider `COc1cccc(CNC(=O)CN(C)S(=O)(=O)c2ccc3c(c2)n(C)c(=O)c(=O)n3C)c1`, for which the cell number change was -2.12%. Further, the AC50 under setting [2] was 6.51 µM [falling, single point].

Take `CS(=O)(=O)Cc1cc(Sc2ccccc2)nc(-c2ccncc2)n1`: the cell number change was -13.2%.

With `Nc1ccc(Oc2ccc(Br)cc2)cc1`, the cell number change was 3.65%. Also, the AC50 under setting [2] is 0.82 µM [rising, full curve, poor fit].

Regarding `COc1ccc2cc(C(=O)N/N=C/c3sc4ccccc4c3O)ccc2c1`, the cell number change was -22.5%. Under setting [2], the AC50 is 1.64 µM [rising, partial curve].

In the case of `Nc1[nH]c(=S)nc2nc(-c3ccccc3)c(-c3ccccc3)nc12`, the cell number change is -8.95%. Besides, the AC50 under setting [2] was 0.116 µM [falling, single point].

Turning to `Clc1ccc(COn2nnc3ccccc32)c(Cl)c1`, the cell number change is -14.6%. The AC50 under setting [2] is 0.461 µM [falling, full curve].

Consider `COC(=O)c1cc(=O)n(Cc2ccc(OC)c(OC)c2)c(=Nc2ccc(F)cc2)s1`, for which the cell number change is -15.3%. Further, under setting [2], the AC50 was 0.00461 µM [rising, full curve, poor fit].

Regarding `CC1CCC(NC(=O)Cn2c(=O)oc3ccccc32)CC1` (stereo unspecified), under setting [2], the AC50 was 0.58 µM [falling, single point].

Regarding `CCOc1ccc(C(=O)NCC(=O)NCC(c2ccccc2OC)N2CCCC2)cc1` (stereo unspecified), the cell number change stood at 25.6%.

For `C[C@@H](C(=O)Nc1cccnc1)n1c(=O)[nH]c2ccccc2c1=O`, the cell number change was -5.9%. For the same molecule, the AC50 under setting [2] was 0.58 µM [falling, single point].

Turning to `COC(C/C=C/[C@@H](O)COCc1ccccc1)OC`, the cell number change was determined as 0.77%. The AC50 under setting [2] is 6.51 µM [rising, partial curve, poor fit].

In the case of `Cc1cccc(N2CCN(C(=O)C(Cc3ccccc3)n3cccc3)CC2)c1C` (stereo unspecified), the cell number change worked out at 51.5%. Moreover, the AC50 under setting [1] is 29.1 µM [rising, single point]. For the same molecule, the AC50 under setting [2] is 8.2 µM [rising, partial curve].

Take `CCOC(=O)C(C(=O)Nc1ccccc1)C1CCCCC1` (stereo unspecified): the cell number change came to 8.77%. Moreover, the AC50 under setting [2] was 18.4 µM [rising, single point].

Usually AC50 stands for the midpoint of the concentration-response curve, whichever way the signal moves. A lower AC50 goes with activity at low concentration.
